Results are given in words; binding and its absence hold for the method and conditions named. In cells and extracts the contact can be indirect. Some results given as binding are weak or reduced against the parent protein; the word gives no strength.
Assays:
[1] = molecular target: T1, PTGES3 (human (endogenous in LNCaP)) (UniProt Q15185); assay: co-IP; LNCaP cell lysate; IP with IgG or PTGES3 antibody; western blots for KAT2A, P300, FOXA1
T1 sequence: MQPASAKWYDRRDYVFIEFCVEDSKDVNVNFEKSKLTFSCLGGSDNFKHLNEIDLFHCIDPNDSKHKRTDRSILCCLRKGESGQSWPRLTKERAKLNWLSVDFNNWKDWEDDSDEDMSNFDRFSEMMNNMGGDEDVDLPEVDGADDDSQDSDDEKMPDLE

Sequences of proteins named here, by UniProt entry; tags and fusion partners are left off.
UniProt P10275: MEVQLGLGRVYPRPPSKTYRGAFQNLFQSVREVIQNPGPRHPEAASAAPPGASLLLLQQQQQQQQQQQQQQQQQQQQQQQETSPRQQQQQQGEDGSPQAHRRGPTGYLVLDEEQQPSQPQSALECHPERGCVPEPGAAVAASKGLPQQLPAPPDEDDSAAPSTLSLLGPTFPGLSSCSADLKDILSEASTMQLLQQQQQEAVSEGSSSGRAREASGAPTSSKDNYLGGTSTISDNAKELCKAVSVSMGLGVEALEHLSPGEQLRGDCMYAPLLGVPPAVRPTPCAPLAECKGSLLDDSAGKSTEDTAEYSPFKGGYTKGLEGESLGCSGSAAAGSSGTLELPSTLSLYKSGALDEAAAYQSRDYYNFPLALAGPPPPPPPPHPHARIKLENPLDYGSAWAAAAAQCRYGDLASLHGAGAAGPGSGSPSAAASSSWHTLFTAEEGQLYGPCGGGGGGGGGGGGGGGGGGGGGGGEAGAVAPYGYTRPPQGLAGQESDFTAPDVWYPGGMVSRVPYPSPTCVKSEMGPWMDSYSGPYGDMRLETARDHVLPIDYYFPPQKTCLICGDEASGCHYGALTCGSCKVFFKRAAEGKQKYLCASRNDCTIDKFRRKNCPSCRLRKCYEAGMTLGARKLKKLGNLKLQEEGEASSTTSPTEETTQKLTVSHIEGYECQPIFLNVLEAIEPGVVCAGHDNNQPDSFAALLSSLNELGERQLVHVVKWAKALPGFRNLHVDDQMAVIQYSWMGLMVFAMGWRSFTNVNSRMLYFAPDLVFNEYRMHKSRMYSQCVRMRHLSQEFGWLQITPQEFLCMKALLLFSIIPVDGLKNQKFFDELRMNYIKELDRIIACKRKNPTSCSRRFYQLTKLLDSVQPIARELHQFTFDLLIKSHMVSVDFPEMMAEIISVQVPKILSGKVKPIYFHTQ
UniProt Q92830: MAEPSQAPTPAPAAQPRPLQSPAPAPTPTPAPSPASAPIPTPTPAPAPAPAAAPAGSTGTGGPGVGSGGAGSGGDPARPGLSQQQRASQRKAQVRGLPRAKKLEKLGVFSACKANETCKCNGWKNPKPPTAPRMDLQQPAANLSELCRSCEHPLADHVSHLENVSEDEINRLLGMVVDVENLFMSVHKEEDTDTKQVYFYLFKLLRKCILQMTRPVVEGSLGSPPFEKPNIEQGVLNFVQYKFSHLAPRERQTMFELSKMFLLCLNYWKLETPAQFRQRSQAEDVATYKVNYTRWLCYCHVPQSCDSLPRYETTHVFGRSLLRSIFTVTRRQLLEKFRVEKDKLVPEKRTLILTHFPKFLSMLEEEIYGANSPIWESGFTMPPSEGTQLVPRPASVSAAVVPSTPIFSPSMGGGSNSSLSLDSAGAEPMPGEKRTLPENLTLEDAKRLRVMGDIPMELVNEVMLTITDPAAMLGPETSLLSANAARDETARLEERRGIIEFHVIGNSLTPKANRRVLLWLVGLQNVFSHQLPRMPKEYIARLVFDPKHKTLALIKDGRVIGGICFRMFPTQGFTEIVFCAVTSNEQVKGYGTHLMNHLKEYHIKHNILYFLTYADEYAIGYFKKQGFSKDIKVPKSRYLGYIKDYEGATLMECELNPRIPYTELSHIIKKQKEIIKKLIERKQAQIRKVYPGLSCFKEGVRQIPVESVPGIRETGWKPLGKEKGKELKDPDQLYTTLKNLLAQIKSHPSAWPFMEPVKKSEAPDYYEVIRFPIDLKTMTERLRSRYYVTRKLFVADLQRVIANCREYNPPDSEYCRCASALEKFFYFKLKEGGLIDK

[2] = molecular target: T1, PTGES3 (human (endogenous in LNCaP)); assay: co-IP; LNCaP cells fractionated to isolate nuclei; IP with IgG or PTGES3 antibodies; western blot for AR
[3] = molecular target: T1, PTGES3 (human (endogenous in LNCaP)); assay: proximity ligation; Duolink in situ kit mouse/rabbit; LNCaP cells fixed with 4% PFA and permeabilized with 0.2% Triton X-100
[4] = molecular target: HA-tagged full-length AR (UniProt P10275); assay: co-IP; LNCaP cells transfected with HA-tagged AR constructs; IP with HA antibody; western blot for PTGES3

histone acetyltransferase KAT2A (from UniProt Q92830 1-837) (enzyme)
binding [1]: binds

androgen receptor (from UniProt P10275 1-920)
binding [2]: binds
binding [3]: binds

B1: PTGES3 (protein, UniProt Q15185 1-160)
chain: T1 sequence
binding [4]: binds

From publication PMC12695660, “Genome-scale CRISPR screens identify PTGES3 as a direct modulator of androgen receptor function in advanced prostate cancer”
